Some of the results follow.
B1: il10ra_site1_sap_23_mot_HHH_b1_08411_af2_000000053_0001_1_20_H_._HHH_b2_00546_af2_0001_0001000010_0000001_0_0001 (protein)
chain: SSSSSDEEREEAEELLEEAKHIDDERERVELLARALEIATKLRDKELARKVDRVAIELYWSSSSS
B2: il10ra_site1_sap_13_mot_HHH_b1_06789_af2_000000041_0001_1_20_H_._HHH_b2_02303_af2_0001_0000100003_0000001_0_0001 (protein)
chain: SSSSSSDEEEVEELLEELKQITDEEEFSELALEILRLIVEIGDAELLRELWRIIVETISSSSSSS
B3: il10ra_site1_sap_21_mot_HHH_b2_02736_000000092_0001_22_38_H_._HHH_b2_06050_af2_0001_0001100057_0000001_0_0001 (protein)
chain: SSSSDQEEELAEALVRIIRQALEMGDKERARMMLLSLEMLAEDLNDPELRELREELEELLNSSSS
B4: il10ra_site1_sap_24_mot_HHH_b1_07463_af2_000000297_0001_37_56_H_._HHH_b2_07128_af2_0001_0000200014_0000001_0_0001 (protein)
chain: SSSSSEEAEELYRLLREVARLDHDGDPEEARRLVEEALELAEELNDPIFARQFEFLLRLINSSSS
B5: il10ra_site1_normal_mot_HHH_b1_06363_000000103_0001_21_38_H_._HHH_b1_08068_af2_0001_0000400007_0000001_0 (protein)
chain: SSSSSDEEEEVKELLEEAEKIEDHEEAWQVLVEAYFLADQLRDPELRELVTEVARRLAGSSSSSS
B6: il10ra_site1_normal_mot_HHH_b2_03220_af2_000000223_0001_23_40_H_._HHH_b1_05632_af2_0001_0000200012_0000001_0 (protein)
chain: SSSNEAERVWRLAREALELLAHGDHEEAEELVREAIELAEEANSRVLEFNLRQLLRQIERLSSSS
B7: il10ra_site1_normal_mot_HHH_b1_07278_000000273_0001_1_20_H_._637cc8c69280e3cc9e9840e2bee06d3a_0001_1_0001_0000200003_0000001_0 (protein)
chain: SVEELLEELEKRNWIFVRSLRLLLEQLREDPNDEAVREALRHLERIAKELGDPLLEEILELIIEG
B8: il10ra_site1_sap_16_mot_HHH_b2_04274_000000146_0001_1_19_H_._HHH_b2_04971_0001_0000200017_0000003_0_0001 (protein)
chain: SSSSDEEERALELAVRASKLIWEGDEEEAREVIEELEEIVRKIGDERLRLSVRFLKALLKSSSSS
B9: il10ra_site1_sap_11_mot_HHH_b1_00329_000000081_0001_1_16_H_._HHH_b1_07089_0001_0000100023_0000001_0_0001_af2pred_0001 (protein)
chain: SSSSSEEEILRRQARALELAVRTNDPEKIRLAAHDLLLLAELANDEEIFERAERILEEVNSSSSS
B10: il10ra_site1_normal_mot_3af0db62db2b275566dae2e03bf881fa_0001_000000003_0001_37_50_H_._HHH_b2_01366_0001_0000200011_0000001_0_af2pred_dldesign_0_af2pred (protein)
chain: SSSSSEERLRAQAILDFAKHMKNPEVATKALEIALEIAKKEKDEELIAEIEAALAELEKLSSSSS
B11: il10ra_site1_sap_30_mot_HHH_b2_03743_af2_000000240_0001_38_52_H_._HHH_b2_01499_0001_0000200012_0000001_0_0001 (protein)
chain: SSSSSMDEELLRAIVRLIEELGDPEAAEEVRELLEEYEEKGDPRALKEAAEILARVSRRRFSSSS
B12: il10ra_site1_normal_mot_812af5c65f29141b25d3ed263bec1fb2_0001_1_000000083_0001_36_50_H_._HHH_b2_06063_0001_0000100001_0000001_1_af2pred_0001 (protein)
chain: SSSSSDEELREEVEELLEEAKHIDDPEEAAQVLLRALELAYELGDPELIQLVAEVAQRLKSSSSS
B13: il10ra_site1_sap_27_mot_HHH_b1_06912_af2_000000235_0001_1_15_H_._HHH_b1_07772_0001_0000200015_0000002_0_0001 (protein)
chain: SSSSSSDEAAHLSLEAFRAALRGDEEKAEEILEEAEEVAREEGDPRLLRVIEDLLRVLKSSSSSS
B14: il10ra_site1_sap_18_mot_HHH_b2_01205_000000166_0001_1_19_H_._HHH_b1_04855_0001_0000400030_0000001_0_0001 (protein)
chain: SSSSSEEEVEELLREAERLLENGNPRKAIEVLLRAVRIAVKANNWELLHEVWRLIKEIAENSSSS
B15: il10ra_site1_sap_22_mot_HHH_b2_06795_000000133_0001_42_56_H_._HHH_b2_02890_0002_0000200012_0000001_0_0001 (protein)
chain: SSSSDELEELLRQLEEAVEEGDQELVQRLALRVVRLAFENQDREVLHEVWRLIKEFAERLSSSSS
B16: il10ra_site1_sap_31_mot_HHH_b1_08477_000000091_0001_40_57_H_._HHH_b2_07133_0001_0000300015_0000001_0_0001 (protein)
chain: SSSSSDEEHQLELALRFARWLIEAGDEEAARFILEVVLEMARRAGDEEIQREAEELLEEISSSSS
B17: il10ra_site1_normal_mot_HHH_b2_07642_af2_000000000_0001_1_18_H_._HHH_b1_05285_af2_0001_0000300016_0000001_0 (protein)
chain: SSSSQEEYQEFAEIVAEALRKLMEEGDEETLEELLRLLEEAIRHLDPELFEEVEELAQKVLSSSS
B18: il10ra_site1_sap_25_mot_HHH_b2_00952_af2_000000228_0001_1_18_H_._HHH_b1_05785_af2_0001_0000100007_0000001_0_0001 (protein)
chain: SSSSDRYERVERLIERIVQLIREGDEEEARELLRELEELAKEAGNPFLEFIVRMLERLIDSSSSS
B19: il10ra_site1_normal_mot_HHH_b1_03353_af2_000000170_0001_1_18_H_._HHH_b2_06094_0001_0000200022_0000002_0 (protein)
chain: SSSSSDEWYEFVRKVLEEARELSKRDPEEARELLEEAIEEVEKHNDFLARFSLEHLLKALSSSSS
B20: il10ra_site1_sap_19_mot_HHH_b1_06789_af2_000000041_0001_1_20_H_._HHH_b1_02086_af2_0001_0000200010_0000001_0_0001 (protein)
chain: SSSSSSDETEELRERLEELLEEGDEEELKRLLLEALHVAFRHRDQELIRLLWELVKRASSSSSSS
B21: il10ra_site1_normal_mot_3af0db62db2b275566dae2e03bf881fa_0001_000000003_0001_37_50_H_._HHH_b1_05063_af2_0001_0000400010_0000001_1 (protein)
chain: SSSSSSQEETRAEAILYFAELADNPEARRRALEYALELARRLGDEELEEEIERLLEEINSSSSSS
B22: il10ra_site1_normal_mot_HHH_b2_04251_af2_000000037_0001_42_56_H_._HHH_b2_02046_0001_0000300014_0000001_0_af2pred_dldesign_0_af2pred (protein)
chain: SSSSDPAAVVAELTAKVKALLEAGKLEEAAEVLRELSRFALENKNQEAIAAIKELAKEILESSSS
B23: il10ra_site1_sap_34_mot_HHH_b1_02351_af2_000000121_0001_21_38_H_._HHH_b2_02873_0001_0000100012_0000001_0_0001_af2pred_0001 (protein)
chain: SSSSSDERQARNEVEALLFFAKVSSNEEAVELALELAEELAKEANDPELEELVREVKEELSSSSS
B24: il10ra_site1_normal_mot_HHH_b2_02053_af2_000000006_0001_3_19_H_._HHH_b1_02427_0001_0000100007_0000001_0 (protein)
chain: SSSSDAEELYELSRKALELLANGNPEEAEKLLEEAQKIAEEANNKVILFNIRFLLRQVERQSSSS
B25: il10ra_site1_normal_mot_HHH_b1_02062_000000185_0001_1_20_H_._HHH_b2_02790_af2_0001_0000600027_0000002_0 (protein)
chain: SSSSDASEEAYELSRKAAELASEGDEEEFEKVVKEAEELAEEANNEIIRFALEHLKRTLESSSSS
B26: il10ra_site1_sap_14_mot_8756ee2cf497b5429c717dfc0c0bcfd6_0001_000000186_0001_1_13_H_._HHH_b2_06886_af2_0001_0000600033_0000001_0_0001 (protein)
chain: SSSSDLEEEIKELLEELQELIEEGDSEEALRLAMRILRLIFRLGNPELLEEVWRLVRRLRSSSSS
B27: il10ra_site1_normal_mot_HHH_b2_06602_000000226_0001_1_16_H_._HHH_b1_00527_0001_0000200022_0000001_0_af2pred_0001 (protein)
chain: SSSSSEEEELEEELFKLLAELYRTGDPRLREEVEELAKRIEEENPELRQFAQAVLRSAELLSSSS
B28: il10ra_site1_sap_20_mot_HHH_b2_03220_af2_000000223_0001_23_40_H_._HHH_b1_06492_0001_0000300022_0000001_0_0001_af2pred_0001 (protein)
chain: SSSSDRDEEAVRRALEFAEWLYRQGDERAVRIILKAAEDIAKRANDPELERLVKEVEEELSSSSS
B29: il10ra_site1_sap_18_mot_HHH_b1_07097_af2_000000269_0001_1_16_H_._HHH_b2_05178_af2_0001_0000200016_0000001_1_0001 (protein)
chain: SSSDELEEYAELTKRFIRFLLENGDKESVRRMLKALKDIAKQLNDEELEEEIKELRELLEELSSS
B30: il10ra_site1_normal_mot_8756ee2cf497b5429c717dfc0c0bcfd6_0001_000000186_0001_1_13_H_._HHH_b1_02412_af2_0001_0000300023_0000001_0_af2pred_0001 (protein)
chain: SSSSSLAEQVLELIREAMELLSEGNPEEAEKLLEEAEELAEEAGNEALRAVLEFILKHVRQSSSS
B31: il10ra_site1_normal_mot_8756ee2cf497b5429c717dfc0c0bcfd6_0001_000000186_0001_1_13_H_._HHH_b1_02484_0001_0000400032_0000001_0_af2pred_0001 (protein)
chain: SSSSDTEEVFRLLQRLARLVREGDREEFEKLFEEAQRLIEEAGSAVLRAILEFLEEAIEKNSSSS
B32: il10ra_site1_normal_mot_8756ee2cf497b5429c717dfc0c0bcfd6_0001_000000186_0001_1_13_H_._HHH_b1_07372_0001_0000100003_0000001_1 (protein)
chain: SSSSSEEAREVYELIRRAAELHRNGNPEEAEEVLKEAEELAREANNDVLLFQIEYLLRHIGSSSS
B33: il10ra_site1_sap_19_mot_HHH_b2_08186_000000021_0001_43_56_H_._HHH_b1_05662_0001_0000200024_0000002_0_0001_af2pred_0001 (protein)
chain: SEEEELLKLLAEVLGVPPETIQEMLERLEKLAGNPEWALELIVRSVIDRDPRFREELEELLRKVK
B34: il10ra_site1_normal_mot_ems_3hC_416_0001_000000048_0001_1_19_H_._HHH_b1_00201_af2_0001_0000100004_0000002_0 (protein)
chain: SSSSNEALQEALELSIHAFRAALRGNPEEARELLEEALELAREGGNERLVRQIEELLRTLSSSSS
B35: il10ra_site1_sap_17_mot_HHH_b1_03763_000000209_0001_22_38_H_._HHH_b1_06016_0001_0000500017_0000001_0_0001 (protein)
chain: SSSSDDDEELLEAALRIAEQALEAGDPESARLILLAAARIAEELGNEELLEEIRRLLEEIRSSSS
B36: il10ra_site1_normal_mot_HHH_b2_06979_000000158_0001_42_57_H_._HHH_b2_06581_af2_0001_0000100005_0000001_0 (protein)
chain: SSSSDEEVQEIIKLLREAAEIEDKEEAQEVVEEALELARELGNELLAINVEFLLEDLRQGSSSSS
B37: il10ra_site1_sap_14_mot_HHH_b1_00103_000000293_0001_1_15_H_._HHH_b1_04446_0001_0000300019_0000002_0_0001_af2pred_0001 (protein)
chain: SSSSSDEEQARESVEWFLRAARQIEDEERVRLALRDAKLAAEWLNDPELEELVREVEEELSSSSS

Each binder was assayed against il10ra, Q13651 (assay: yeast display titration).

Apparent Kd, inactive:
B1 no binding seen
B2 no binding seen
B3 no binding seen
B4 no binding seen
B5 no binding seen
B6 no binding seen
B7 no binding seen
B8 no binding seen
B9 no binding seen
B10 no binding seen
B11 no binding seen
B12 no binding seen
B13 no binding seen
B14 no binding seen
B15 no binding seen
B16 no binding seen
B17 no binding seen
B18 no binding seen
B19 no binding seen
B20 no binding seen
B21 no binding seen
B22 no binding seen
B23 no binding seen
B24 no binding seen
B25 no binding seen
B26 no binding seen
B27 no binding seen
B28 no binding seen
B29 no binding seen
B30 no binding seen
B31 no binding seen
B32 no binding seen
B33 no binding seen
B34 no binding seen
B35 no binding seen
B36 no binding seen
B37 no binding seen

Reprinted at random: 2 entries already listed
Apparent Kd, inactive:
B13 no binding seen
B11 no binding seen

Reference: PMC10163288
